Data from publication PMC8001760.
No constants are given. Whether binding was seen depends on the method and setting. Binding seen in cells or lysates may run through a third protein. Some binding calls cover weakened binding; strength is not graded here. For some assays here: Sequences can lack the tags named with a protein.

T1: Flag-mouse lipin-2 (mouse) (UniProt Q99PI5)
T1 sequence: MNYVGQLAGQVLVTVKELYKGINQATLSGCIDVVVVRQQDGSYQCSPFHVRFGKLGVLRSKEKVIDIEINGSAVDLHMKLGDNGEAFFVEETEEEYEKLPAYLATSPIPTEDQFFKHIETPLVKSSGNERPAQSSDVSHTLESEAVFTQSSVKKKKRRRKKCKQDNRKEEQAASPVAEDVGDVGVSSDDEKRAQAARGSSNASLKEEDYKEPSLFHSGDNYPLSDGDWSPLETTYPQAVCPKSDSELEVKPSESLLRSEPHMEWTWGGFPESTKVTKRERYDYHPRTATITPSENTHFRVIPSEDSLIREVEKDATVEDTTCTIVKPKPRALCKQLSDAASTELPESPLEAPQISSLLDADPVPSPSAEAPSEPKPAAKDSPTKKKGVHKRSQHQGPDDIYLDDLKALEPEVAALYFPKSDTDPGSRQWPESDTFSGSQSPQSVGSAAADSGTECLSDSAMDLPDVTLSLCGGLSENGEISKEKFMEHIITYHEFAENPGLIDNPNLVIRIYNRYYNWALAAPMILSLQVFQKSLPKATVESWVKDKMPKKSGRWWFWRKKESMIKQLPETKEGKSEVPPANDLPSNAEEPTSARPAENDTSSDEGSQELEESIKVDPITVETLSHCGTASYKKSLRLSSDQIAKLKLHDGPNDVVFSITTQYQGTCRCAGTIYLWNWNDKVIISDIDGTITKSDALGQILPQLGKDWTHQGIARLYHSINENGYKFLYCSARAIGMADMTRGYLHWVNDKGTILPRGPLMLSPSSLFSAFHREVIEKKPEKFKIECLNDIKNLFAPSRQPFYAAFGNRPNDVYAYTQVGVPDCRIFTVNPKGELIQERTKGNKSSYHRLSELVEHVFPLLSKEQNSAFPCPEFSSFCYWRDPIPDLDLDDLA

T2: TAK1 (endogenous, RAW-D cells) (mouse (endogenous in RAW-D)) (UniProt Q62073)
T2 sequence: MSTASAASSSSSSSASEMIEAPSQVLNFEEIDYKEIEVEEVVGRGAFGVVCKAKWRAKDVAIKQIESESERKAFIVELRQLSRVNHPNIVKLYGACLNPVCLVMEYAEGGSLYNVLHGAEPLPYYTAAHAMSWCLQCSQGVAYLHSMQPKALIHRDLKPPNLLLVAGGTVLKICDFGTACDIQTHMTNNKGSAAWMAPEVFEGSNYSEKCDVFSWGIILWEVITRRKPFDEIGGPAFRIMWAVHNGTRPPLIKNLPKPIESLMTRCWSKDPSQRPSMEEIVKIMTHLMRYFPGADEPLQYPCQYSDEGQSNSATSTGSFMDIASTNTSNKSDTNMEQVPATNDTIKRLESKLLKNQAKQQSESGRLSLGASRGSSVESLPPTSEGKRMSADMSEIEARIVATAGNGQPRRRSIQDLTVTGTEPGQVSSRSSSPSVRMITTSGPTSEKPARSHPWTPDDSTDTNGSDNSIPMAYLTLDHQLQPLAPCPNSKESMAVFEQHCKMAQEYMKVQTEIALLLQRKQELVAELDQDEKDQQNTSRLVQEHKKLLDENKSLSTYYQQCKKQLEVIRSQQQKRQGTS


What was measured:
[1] = molecular target: T1, Flag-mouse lipin-2 (mouse); assay: co-IP; 293T cells co-transfected with Flag- and HA-tagged plasmids; anti-HA or anti-Flag beads, NP-40 lysis buffer (50 mM Tris-Cl pH 7.5, 120 mM NaCl, 0.5% NP-40), 4 °C, 4 h; immunoblot
[2] = molecular target: T2, TAK1 (endogenous, RAW-D cells) (mouse (endogenous in RAW-D)); assay: co-IP; endogenous proteins of RAW-D cells; anti-TAK1 antibody-conjugated beads, normal mouse IgG as control IP, NP-40 lysis buffer, 4 °C, 4 h; immunoblot

Row | binding [1] | binding [2] | Binder
1 | binds | – | HA-TAK1 (enzyme, UniProt O43318 1-606) MSTASAASSSSSSSAGEMIEAPSQVLNFEEIDYKEIEVEEVVGRGAFGVVCKAKWRAKDVAIKQIESESERKAFIVELRQLSRVNHPNIVKLYGACLNPVCLVMEYAEGGSLYNVLHGAEPLPYYTAAHAMSWCLQCSQGVAYLHSMQPKALIHRDLKPPNLLLVAGGTVLKICDFGTACDIQTHMTNNKGSAAWMAPEVFEGSNYSEKCDVFSWGIILWEVITRRKPFDEIGGPAFRIMWAVHNGTRPPLIKNLPKPIESLMTRCWSKDPSQRPSMEEIVKIMTHLMRYFPGADEPLQYPCQYSDEGQSNSATSTGSFMDIASTNTSNKSDTNMEQVPATNDTIKRLESKLLKNQAKQQSESGRLSLGASRGSSVESLPPTSEGKRMSADMSEIEARIAATTAYSKPKRGHRKTASFGNILDVPEIVISGNGQPRRRSIQDLTVTGTEPGQVSSRSSSPSVRMITTSGPTSEKPTRSHPWTPDDSTDTNGSDNSIPMAYLTLDHQLQPLAPCPNSKESMAVFEQHCKMAQEYMKVQTEIALLLQRKQELVAELDQDEKDQQNTSRLVQEHKKLLDENKSLSTYYQQCKKQLEVIRSQQQKRQGTS
2 | – | binds | lipin2 (endogenous, RAW-D cells) (protein, UniProt Q99PI5 1-893) MNYVGQLAGQVLVTVKELYKGINQATLSGCIDVVVVRQQDGSYQCSPFHVRFGKLGVLRSKEKVIDIEINGSAVDLHMKLGDNGEAFFVEETEEEYEKLPAYLATSPIPTEDQFFKHIETPLVKSSGNERPAQSSDVSHTLESEAVFTQSSVKKKKRRRKKCKQDNRKEEQAASPVAEDVGDVGVSSDDEKRAQAARGSSNASLKEEDYKEPSLFHSGDNYPLSDGDWSPLETTYPQAVCPKSDSELEVKPSESLLRSEPHMEWTWGGFPESTKVTKRERYDYHPRTATITPSENTHFRVIPSEDSLIREVEKDATVEDTTCTIVKPKPRALCKQLSDAASTELPESPLEAPQISSLLDADPVPSPSAEAPSEPKPAAKDSPTKKKGVHKRSQHQGPDDIYLDDLKALEPEVAALYFPKSDTDPGSRQWPESDTFSGSQSPQSVGSAAADSGTECLSDSAMDLPDVTLSLCGGLSENGEISKEKFMEHIITYHEFAENPGLIDNPNLVIRIYNRYYNWALAAPMILSLQVFQKSLPKATVESWVKDKMPKKSGRWWFWRKKESMIKQLPETKEGKSEVPPANDLPSNAEEPTSARPAENDTSSDEGSQELEESIKVDPITVETLSHCGTASYKKSLRLSSDQIAKLKLHDGPNDVVFSITTQYQGTCRCAGTIYLWNWNDKVIISDIDGTITKSDALGQILPQLGKDWTHQGIARLYHSINENGYKFLYCSARAIGMADMTRGYLHWVNDKGTILPRGPLMLSPSSLFSAFHREVIEKKPEKFKIECLNDIKNLFAPSRQPFYAAFGNRPNDVYAYTQVGVPDCRIFTVNPKGELIQERTKGNKSSYHRLSELVEHVFPLLSKEQNSAFPCPEFSSFCYWRDPIPDLDLDDLA
